Measured values reported in paper PMC8346142.
No constants are given. Whether binding was seen depends on the method and setting. In cells and extracts the contact can be indirect. Binding can be weak; no strength is given.

Amino acid sequences for entries named in this document (tags omitted). A change or cut given only in a name is not applied to a line headed by its entry. Residues count along the entry.
UniProt Q16288: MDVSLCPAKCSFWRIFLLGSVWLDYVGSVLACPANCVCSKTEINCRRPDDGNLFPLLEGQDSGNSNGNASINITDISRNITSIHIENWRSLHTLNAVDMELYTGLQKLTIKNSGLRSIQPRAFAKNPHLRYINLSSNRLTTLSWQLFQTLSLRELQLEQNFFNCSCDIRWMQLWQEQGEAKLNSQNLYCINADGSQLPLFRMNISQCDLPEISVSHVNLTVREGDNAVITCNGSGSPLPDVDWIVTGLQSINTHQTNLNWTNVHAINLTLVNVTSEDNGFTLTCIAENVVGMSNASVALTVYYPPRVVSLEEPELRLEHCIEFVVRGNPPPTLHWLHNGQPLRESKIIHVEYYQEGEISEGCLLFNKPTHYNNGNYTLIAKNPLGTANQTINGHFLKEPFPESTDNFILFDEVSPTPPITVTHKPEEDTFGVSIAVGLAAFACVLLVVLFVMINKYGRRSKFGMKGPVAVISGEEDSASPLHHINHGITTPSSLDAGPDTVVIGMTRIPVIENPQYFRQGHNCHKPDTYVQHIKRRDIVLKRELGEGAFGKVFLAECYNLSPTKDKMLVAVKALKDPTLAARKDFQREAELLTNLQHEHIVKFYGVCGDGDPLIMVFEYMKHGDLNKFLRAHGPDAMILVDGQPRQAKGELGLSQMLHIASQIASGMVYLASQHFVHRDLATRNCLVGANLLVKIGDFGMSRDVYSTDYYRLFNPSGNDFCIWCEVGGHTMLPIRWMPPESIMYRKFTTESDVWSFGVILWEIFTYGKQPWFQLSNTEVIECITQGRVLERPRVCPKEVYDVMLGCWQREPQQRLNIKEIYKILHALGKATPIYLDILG
UniProt P08138, residues 29-427: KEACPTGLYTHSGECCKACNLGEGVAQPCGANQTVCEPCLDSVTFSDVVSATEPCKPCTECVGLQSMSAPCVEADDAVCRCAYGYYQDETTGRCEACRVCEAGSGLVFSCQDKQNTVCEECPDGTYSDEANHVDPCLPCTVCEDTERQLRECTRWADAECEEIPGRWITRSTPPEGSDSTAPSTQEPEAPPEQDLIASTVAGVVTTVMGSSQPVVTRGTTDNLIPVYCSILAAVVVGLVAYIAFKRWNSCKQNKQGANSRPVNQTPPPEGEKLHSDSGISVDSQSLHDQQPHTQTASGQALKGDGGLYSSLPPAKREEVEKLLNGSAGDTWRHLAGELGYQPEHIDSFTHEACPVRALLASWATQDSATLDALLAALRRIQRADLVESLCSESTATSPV

Molecular target: truncated isoform of the tropomyosin-related kinase receptor C (TrkC-T1) (human (endogenous in SH-SY5Y)) (UniProt Q16288)
Experiment: co-IP; SH-SY5Y cells pretreated 24 h with vehicle or 1 mM VPA, then 1 h with vehicle or 1 nM NT-3; lysed in RIPA buffer with 1% Triton X-100; extract incubated overnight at 4 °C with anti-TrkC-T1 antibody, Protein G magnetic beads; immunoprecipitates blotted for p75NTR and TrkC-T1

- binding: binds
Substance: common neurotrophin p75NTR receptor (from UniProt P08138 29-427)
